Results published in publication PMC6587950.
No constants are given. Whether binding was seen depends on the method and setting. In cells and extracts the contact can be indirect. Some entries that bind do so weakly or less than the wild type.

The chains behind the UniProt entries cited, without tags or fusion partners.
UniProt P22366: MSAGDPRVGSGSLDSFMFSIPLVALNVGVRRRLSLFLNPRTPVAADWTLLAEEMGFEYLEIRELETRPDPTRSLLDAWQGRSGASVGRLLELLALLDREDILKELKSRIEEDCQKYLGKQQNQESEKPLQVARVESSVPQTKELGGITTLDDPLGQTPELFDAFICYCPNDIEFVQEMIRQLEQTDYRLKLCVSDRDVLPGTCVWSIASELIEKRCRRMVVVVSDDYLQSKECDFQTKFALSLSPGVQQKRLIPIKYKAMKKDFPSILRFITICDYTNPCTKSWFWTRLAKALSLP

Target: T1, single Ig IL-1-related receptor (mouse (endogenous in RAW264.7)) (UniProt Q9JLZ8)
T1 sequence: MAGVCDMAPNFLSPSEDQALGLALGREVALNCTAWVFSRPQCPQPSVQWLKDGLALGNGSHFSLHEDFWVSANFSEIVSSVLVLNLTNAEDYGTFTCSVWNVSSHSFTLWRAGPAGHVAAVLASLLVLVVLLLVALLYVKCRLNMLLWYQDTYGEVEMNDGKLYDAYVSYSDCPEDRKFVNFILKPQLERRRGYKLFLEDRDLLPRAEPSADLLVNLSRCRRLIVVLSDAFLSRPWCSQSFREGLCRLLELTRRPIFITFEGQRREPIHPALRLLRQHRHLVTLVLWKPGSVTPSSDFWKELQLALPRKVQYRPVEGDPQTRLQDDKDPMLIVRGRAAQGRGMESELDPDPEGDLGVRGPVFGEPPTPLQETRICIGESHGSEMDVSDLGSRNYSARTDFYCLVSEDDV
Assay: co-IP; RAW264.7 cells treated with M-CSF (50 ng/ml), RANKL (50 ng/ml) and IL-37b (200 ng/ml) for 48 hr; lysed in RIPA buffer; supernatant incubated with SIGIRR antibody (1:50) or mouse IgG overnight at 4°C, protein A/G magnetic beads 4 hr at 4°C; blot for SIGIRR, MyD88 and GAPDH

- binding: binds
Substance: myeloid differentiation factor 88 (from UniProt P22366 1-296)
